According to the supplement of paper PMC8732350:
“And” between values parts separate entries of the source, which are not always exact repeats. Equal values may be shown once. Where a name gives a salt, the structure may show the parent alone. ± gives the standard deviation of the averaged measurements. The list shows a part of the results. Single values are uncertain here, since repeats match poorly.

system: A549; assay: surface PD-L1 immunofluorescence intensity relative to IFN-gamma-only control (ratio); higher = more PD-L1 expression; conditions: 10 µM; exposure time 24 h; IFN-gamma 100 ng/mL

SMILES	surface PD-L1 immunofluorescence intensity
COC(=O)/C=C/c1cccc(N(Cc2ccc(-c3ccc(N(C)C)cc3)cc2)C(=O)C2CCCCC2)c1 [Fexaramine]	0.978
C[C@](N)(Cc1ccc(O)c(O)c1)C(=O)O [Methyldopa (L,-)]	1.12
N[C@@H](CSC(c1ccccc1)(c1ccccc1)c1ccccc1)C(=O)O [S-Trityl-L-cysteine]	0.933
O=C(CCCN1C(=O)c2cccc3cccc(c23)C1=O)NO [Nullscript]	0.999
Cc1c(C(=O)NN2CCCCC2)nn(-c2ccc(Cl)cc2Cl)c1-c1ccc(Cl)cc1	1.03
COc1cc2c(cc1OC)CC(=O)N(CCCN(C)C[C@H]1Cc3cc(OC)c(OC)cc31)CC2 [Ivabradine HCl (Procoralan)]	1.04
C[C@H]1c2cccc(O)c2C(=O)C2=C(O)[C@]3(O)C(=O)C(C(N)=O)=C(O)[C@@H](N(C)C)[C@@H]3[C@@H](O)[C@@H]21 [Doxycycline HCl]	0.973
C[C@H]1c2cccc(O)c2C(=O)C2=C(O)[C@]3(O)C(=O)C(C(N)=O)=C(O)[C@@H](N(C)C)[C@@H]3[C@@H](O)[C@@H]21 [Doxycycline hydrochloride]	0.923
O=C(O)C(=O)O.[NH-][C@@H]1CCCC[C@H]1[NH-].[Pt+2] [Oxaliplatin]	0.999
CSc1cc2c(cc1C(F)(F)F)N(C(=O)Nc1cccnc1)CC2	1.02
Cc1cc2nc3c(=O)[nH]c(=O)nc-3n(C)c2cc1C=O	1.03
Cc1ccc(NC(=O)c2ccc(CN3CCN(C)CC3)cc2)cc1Nc1nccc(-c2cccnc2)n1 [Imatinib Mesylate]	1.09
Cc1ccc(NC(=O)c2ccc(CN3CCN(C)CC3)cc2)cc1Nc1nccc(-c2cccnc2)n1 [Imatinib (STI571)]	1.11
Cc1ccc(NC(=O)c2ccc(CN3CCN(C)CC3)cc2)cc1Nc1nccc(-c2cccnc2)n1 [Imatinib mesylate]	1.09 ± 0.033
Cc1ccc(NC(=O)c2ccc(CN3CCN(C)CC3)cc2)cc1Nc1nccc(-c2cccnc2)n1 [Imatinib]	1.08
CC(C)C(=O)Oc1ccc(CO)cc1[C@H](CCN(C(C)C)C(C)C)c1ccccc1 [Fesoterodine fumarate (Toviaz)]	0.952
CCOC(=O)O[C@]1(C(=O)OCCl)CC[C@H]2[C@@H]3CCC4=CC(=O)C=C[C@]4(C)[C@H]3[C@@H](O)C[C@@]21C [Loteprednol etabonate]	0.762
CCc1cc2c(cc1N1CCC(N3CCOCC3)CC1)C(C)(C)c1[nH]c3cc(C#N)ccc3c1C2=O	0.979
N=C(N)c1ccc(N2CCN(C3CCN(CC(=O)O)CC3)CC2)cc1	1.02
C#CCN[C@@H]1CCc2ccccc21 [Rasagiline mesylate]	1
N#C/C(=C\c1ccc(O)c(O)c1)C(=O)OCCc1cccs1	0.996
C1COC(NC(C2CC2)C2CC2)=N1 [Rilmenidine]	1.05
C1COC(NC(C2CC2)C2CC2)=N1 [Rilmenidine hemifumarate]	0.993
COc1ccc(-c2cc(=S)ss2)cc1 [Anethole-trithione]	0.981
COc1ccc(-c2cc(=S)ss2)cc1 [Anethole trithione]	1.04

SMILES	surface PD-L1 immunofluorescence intensity
COc1ccc(NS(=O)(=O)c2sc3ccc(Cl)cc3c2C)cc1N1CCNCC1	0.937
CC1(C)CCC(C)(C)c2cc(C3(c4ccc(C(=O)O)cc4)OCCO3)ccc21	1.05
O=C(O)c1cn(C2CC2)c2cc(N3CCNCC3)c(F)cc2c1=O [Ciprofloxacin hydrochloride monohydrate]	0.917
CCOc1nc2cccc(C(=O)OCc3oc(=O)oc3C)c2n1Cc1ccc(-c2ccccc2-c2noc(=O)[nH]2)cc1 [Azilsartan Medoxomil (TAK-491)]	0.981
OC[C@H]1O[C@@H](n2cnc3c(NC4CCCC4)ncnc32)[C@H](O)[C@@H]1O [N6-Cyclopentyladenosine]	0.968
CCN(C(=O)c1c(O)c2c(Cl)cccc2n(C)c1=O)c1ccccc1	0.986
CN1CC(=O)N2[C@H](c3ccc4c(c3)OCO4)c3[nH]c4ccccc4c3C[C@@H]2C1=O [Tadalafil (Cialis)]	1.09
CC(C)NCC(O)COc1ccc(CCOCC2CC2)cc1 (centres undefined) [Betaxolol hydrochloride]	0.917
CC(=O)[C@@]1(O)CC[C@H]2[C@@H]3C[C@H](C)C4=CC(=O)C=C[C@]4(C)[C@@]3(F)[C@@H](O)C[C@@]21C [Fluorometholone]	0.883
Cc1c(C(=O)NN2CCCCC2)nn(-c2ccc(Cl)cc2Cl)c1-c1ccc(I)cc1	1.05
COc1cc(C(=O)NCc2ccc(OCCN(C)C)cc2)cc(OC)c1OC [Trimethobenzamide hydrochloride]	0.883
CCCN1CCCC[C@H]1C(=O)Nc1c(C)cccc1C [Ropivacaine HCl]	1.01
Cc1ccc(S(=O)(=O)N[C@@H](Cc2ccccc2)C(=O)CCl)cc1	1.04
CC(C)(OCc1nn(Cc2ccccc2)c2ccccc12)C(=O)O [Bindarit]	0.975
NC1CCN(c2cccc(Cl)n2)CC1	0.979
Cc1cccc(-c2[nH]c(C(C)(C)C)nc2-c2ccc3c(c2)OCO3)n1	0.995
CC(NC(=O)c1ccccc1/N=C/c1c(O)ccc2ccccc12)c1ccccc1 (centres undefined) [Sirtinol]	1.05 ± 0.021
CCC[C@@H]1C[C@@H](C(=O)N[C@@H]([C@H]2O[C@H](SC)[C@H](O)[C@@H](O)[C@H]2O)[C@H](C)Cl)N(C)C1 [Clindamycin hydrochloride]	0.918
CCC[C@@H]1C[C@@H](C(=O)N[C@@H]([C@H]2O[C@H](SC)[C@H](O)[C@@H](O)[C@H]2O)[C@H](C)Cl)N(C)C1 [Clindamycin HCl (Dalacin)]	0.866
C=C1/C(=C\C=C2/CCC[C@]3(C)[C@@H]([C@H](C)CCCC(C)C)CC[C@@H]23)C[C@@H](O)C[C@@H]1O [Alfacalcidol]	1.03
CC(=O)N[C@@H](Cc1c[nH]c2ccccc12)C(=O)OCc1cc(C(F)(F)F)cc(C(F)(F)F)c1	0.906
Cc1ccc2c(c1)c1c3n2CCNC3CCC1 (centres undefined) [Pirlindole mesylate]	1.03 ± 0.058
CCN(CC)CCNC(=O)c1cc(Cl)c(N)cc1OC [Metoclopramide monohydrochloride]	0.948
CC(C)(CO)C(O)C(=O)NCCCO (centres undefined) [Panthenol (D)]	0.851
CN(C)C/C=C(/c1ccc(Br)cc1)c1cccnc1 [Zimelidine dihydrochloride monohydrate]	0.96

An excerpt of the results above, as a working copy:
SMILES	surface PD-L1 immunofluorescence intensity
CCc1cc2c(cc1N1CCC(N3CCOCC3)CC1)C(C)(C)c1[nH]c3cc(C#N)ccc3c1C2=O	0.979
N=C(N)c1ccc(N2CCN(C3CCN(CC(=O)O)CC3)CC2)cc1	1.02
C#CCN[C@@H]1CCc2ccccc21 [Rasagiline mesylate]	1

Given as a markdown table: part of the list above

| SMILES | surface PD-L1 immunofluorescence intensity |
| --- | --- |
| CCOC(=O)O[C@]1(C(=O)OCCl)CC[C@H]2[C@@H]3CCC4=CC(=O)C=C[C@]4(C)[C@H]3[C@@H](O)C[C@@]21C [Loteprednol etabonate] | 0.762 |
| CCc1cc2c(cc1N1CCC(N3CCOCC3)CC1)C(C)(C)c1[nH]c3cc(C#N)ccc3c1C2=O | 0.979 |

Additional records follow:

SMILES	surface PD-L1 immunofluorescence intensity
CN(C)C/C=C(/c1ccc(Br)cc1)c1cccnc1 [Zimelidine dihydrochloride]	0.947
CCOc1ccc2ccccc2c1C(=O)N[C@@H]1C(=O)N2[C@@H]1SC(C)(C)[C@@H]2C(=O)O [Nafcillin sodium salt monohydrate]	0.933
Cn1cnc2c1c(=O)[nH]c(=O)n2C [Theobromine]	1.07
CC1=NN(c2ccccc2)C(=O)C1	0.982 ± 0.031
Nc1ccccc1S(N)(=O)=O [2-Aminobenzenesulfonamide]	1.01
COc1ccccc1Oc1c(NS(=O)(=O)c2ccc(C(C)(C)C)cc2)nc(-c2ncccn2)nc1OCCO [Bosentan]	1.03
C[S+]([O-])c1ccc(-c2nc(-c3ccc(F)cc3)c(-c3ccncc3)[nH]2)cc1 (centres undefined)	0.957 and 1.04
O=C(/C=C/c1ccc(O)cc1)CC(=O)/C=C/c1ccc(O)cc1 [bis-demethoxycurcumin]	0.971
CC1=CC(=O)C(C(C)C)=CC1=O [Thymoquinone]	0.982
CN(C)CCC=C1c2ccccc2COc2ccccc21 [Doxepin hydrochloride]	0.965 ± 0.075
CC(C)[N+](C)(CCOC(=O)C1c2ccccc2Oc2ccccc21)C(C)C [Propantheline bromide]	1.02
CN1CCC[C@@H]1Cc1c[nH]c2ccc(CCS(=O)(=O)c3ccccc3)cc12 [Eletriptan hydrobromide]	1.02
N[C@@H](C(=O)N[C@@H]1C(=O)N2C(C(=O)O)=C(Cl)CC[C@H]12)c1ccccc1 [Loracarbef]	0.995
Cc1onc(-c2ccccc2Cl)c1C(=O)N[C@@H]1C(=O)N2[C@@H]1SC(C)(C)[C@@H]2C(=O)O [Cloxacillin sodium (Cloxacap)]	0.885
Cc1onc(-c2ccccc2Cl)c1C(=O)N[C@@H]1C(=O)N2[C@@H]1SC(C)(C)[C@@H]2C(=O)O [Cloxacillin sodium salt]	1.01
C#Cc1cccc(Nc2ncnc3cc(OCCOC)c(OCCOC)cc23)c1 [Erlotinib]	0.89
COc1ccc(Cn2ccc3ccc(C(=O)NO)cc32)cc1	1.03
COC(=O)C1=CO[C@@H](O[C@@H]2O[C@H](CO)[C@@H](O)[C@H](O)[C@H]2O)[C@@H]2C(CO)=CC[C@H]12 [Geniposide]	1.02
N#Cc1ccc(C2CCCc3cncn32)cc1 (centres undefined) [Fadrozole hydrochloride]	0.846
NS(=O)(=O)c1cc2c(cc1Cl)NC(C(Cl)Cl)NS2(=O)=O (centres undefined) [Trichlormethiazide]	0.992
CN[C@@H]1[C@H](O)[C@H](NC)[C@H]2O[C@@]3(O)C(=O)C[C@@H](C)O[C@H]3O[C@@H]2[C@H]1O [Spectinomycin dihydrochloride]	0.979
Cc1c(-c2ccccc2)oc2c(C(=O)OCCN3CCCCC3)cccc2c1=O [Flavoxate hydrochloride]	0.868
CCCCCCOC(=O)NC(=N)c1ccc(NCc2nc3cc(C(=O)N(CCC(=O)OCC)c4ccccn4)ccc3n2C)cc1 [BIBR-1048 (Dabigatran etexilate, Pradaxa)]	1.04
CCCCCCCCCCCCCCCCCCCCCCO [Docosanol (Abreva)]	1.08
